Screen size: about 400,000 compounds; about 3,700 (0.93%) were called active. The inconclusive results got no clear call from the source; some entries with a clear call stand among them for comparison. Calls follow the shape of the dose curve; as a rule, active = well fitted inhibition curve with a large enough effect; inconclusive = small, poorly fitted or top-dose-only effect, or another doubt; inactive = no such curve, though single readings can be large or run the other way. Potencies of inconclusive entries are doubtful fits and often do not repeat.
Molecular target: Vitamin D3 receptor (Homo sapiens) (UniProt P11473)
Assay: Inhibitors of the vitamin D receptor (VDR): qHTS
Settings: VDR-SRC2-3 peptide fluorescence polarization, 2 h; max response, negative = inhibition: active compounds read low
Outline: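 FP read-out; VDR + SRC2-3 coactivator peptide; 23 nl compound by pintool; 2 h RT incubation; reagents held at 4 deg C, protected from light.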
% is scaled to controls: 0 for no effect and ±100 for the full control effect; potency is read from the fitted curve at half-maximal effect.

Amino acid sequences for entries named in this document (tags omitted). A change or cut given only in a name is not applied to a line headed by its entry.
UniProt P11473: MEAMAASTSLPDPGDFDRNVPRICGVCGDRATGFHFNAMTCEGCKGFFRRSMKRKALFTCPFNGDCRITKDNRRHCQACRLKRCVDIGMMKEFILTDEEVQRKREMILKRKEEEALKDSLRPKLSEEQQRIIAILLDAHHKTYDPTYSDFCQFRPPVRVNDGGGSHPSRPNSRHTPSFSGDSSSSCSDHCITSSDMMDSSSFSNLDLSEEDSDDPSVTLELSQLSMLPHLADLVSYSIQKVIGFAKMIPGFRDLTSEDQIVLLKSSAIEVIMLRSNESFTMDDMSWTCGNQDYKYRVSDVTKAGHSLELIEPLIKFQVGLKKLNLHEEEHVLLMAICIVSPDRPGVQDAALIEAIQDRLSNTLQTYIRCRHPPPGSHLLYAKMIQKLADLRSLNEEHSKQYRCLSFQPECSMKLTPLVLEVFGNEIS

**Q.** With `O=C(O)CCC/C=C\C[C@@H]1CO[C@H](C(F)(F)F)O[C@@H]1c1ccccc1O` as the compound, how does the Potency read?
**A.** inconclusive: 89.1 µM [inhibitor, single point]

**Q.** With `OCC1O[C@H]([S-])[C@H](O)[C@@H](O)[C@@H]1O.[Au+]` (stereo partly drawn) as the compound, how does the Potency read?
**A.** active: 2.82 µM

**Q.** How did the max response, negative = inhibition turn out when `CCN(CC)CCCN1C(=O)C(=O)/C(=C(/O)c2ccc3c(c2)OCCO3)C1c1ccco1` (stereo not drawn) was run?
**A.** inactive: 1.16%

**Q.** `OC1=C(O)c2nc3cc(C(F)(F)F)ccc3nc21` was tested. Which max response, negative = inhibition did it give?
**A.** inactive: -7.36%

**Q.** `COc1ccc(-c2nc3cc(C)ccn3c2NC2CCCCC2)cc1SC1CCCCC1` was tested. Which Potency did it give?
**A.** inconclusive: 79.4 µM [inhibitor, partial curve, poor fit]

**Q.** How did the max response, negative = inhibition turn out when `CN1CCN(C(=O)CSc2nc(-c3cccs3)ccc2C#N)CC1` was run?
**A.** inactive: -13.3%

**Q.** How did the Potency turn out when `O=C(O)c1cc(-c2ccc(Cl)c(Cl)c2)n(-c2ccc(F)cc2)n1` was run?
**A.** inconclusive: 79.4 µM [inhibitor, partial curve, poor fit]

**Q.** With `O=C(NCCCN1CCCCC1)C1CCN(c2ncnc3c2nc2n3CCCCC2)CC1` as the compound, how does the Potency read?
**A.** inconclusive: 25.1 µM [inhibitor, partial curve, poor fit]

**Q.** For `CC1=N/C(=C\c2ccccc2Cl)C(=O)O1`, which max response, negative = inhibition is on record?
**A.** inactive: -3.91%

**Q.** How did the Potency turn out when `CO/N=C(\C(=O)NC1C(=O)N2C(C(=O)OCOC(=O)C(C)(C)C)=C(/C=C\c3scnc3C)CSC12)c1csc(N)n1` (stereo not drawn) was run?
**A.** active: 35.5 µM

**Q.** Which Potency does the source give for `O=C(/C=C/c1ccccc1)NC(NC(=S)Nc1ccc(C(=O)O)cc1)C(Cl)(Cl)Cl` (stereo not drawn) here?
**A.** inconclusive: 89.1 µM [inhibitor, single point]

**Q.** How did the Potency turn out when `C=C(C)COc1ccc2c(CC)cc(=O)oc2c1C` was run?
**A.** inconclusive: 100 µM [inhibitor, partial curve, poor fit]

**Q.** With `CCN1CCN(C(=S)c2ccc(OCC(=O)NCc3ccccc3)cc2)CC1` as the compound, how does the Potency read?
**A.** inconclusive: 100 µM [inhibitor, single point]

**Q.** `O=C(Nc1cccc(-c2cccc(Cl)c2)c1)C1CCN(CC2CCOC2)CC1` (stereo not drawn) was tested. Which max response, negative = inhibition did it give?
**A.** inactive: 6.24%

**Q.** `O=C(NC(=S)Nc1ccccc1O)c1cccnc1` was tested. Which max response, negative = inhibition did it give?
**A.** inactive: -11.1%

**Q.** Which Potency does the source give for `COc1ccc(S(=O)(=O)c2c(O)c3ccc(C(=O)Nc4ccc(F)cc4)cc3[nH]c2=O)cc1` here?
**A.** inconclusive: 5.01 µM [inhibitor, partial curve, poor fit]

**Q.** Which Potency does the source give for `COc1ccc2c(c1)cc1c(=O)n(CC(=O)NC3CC3)nc(C)n12` here?
**A.** inconclusive: 89.1 µM [inhibitor, single point]

**Q.** `O=C(CCCc1nc(-c2ccc(Cl)cc2)no1)Nc1cccnc1` was tested. Which max response, negative = inhibition did it give?
**A.** inactive: 5.92%

**Q.** `CCOC(=O)C(=Cc1ccc(-c2ccsc2C(=O)OC)o1)C(=O)OCC` was tested. Which Potency did it give?
**A.** inconclusive: 79.4 µM [inhibitor, single point]

**Q.** For `Cc1c(NC(=O)c2cccc(NC(=O)COc3ccc(C#N)cc3)c2)c(=O)n(-c2ccccc2)n1C`, which max response, negative = inhibition is on record?
**A.** inactive: 1.12%

**Q.** How did the Potency turn out when `O=C(Cn1cc2c(n1)CCCC2)NCCCN1CCCC1` was run?
**A.** inconclusive: 89.1 µM [inhibitor, partial curve, poor fit]

**Q.** With `COc1ccc(NC(=O)CC2SC(N)=NC2=O)c([N+](=O)[O-])c1` (stereo not drawn) as the compound, how does the Potency read?
**A.** inconclusive: 3.16 µM [inhibitor, partial curve, poor fit]

**Q.** With `COc1ccc(C(=O)Nc2cc(C(=O)c3ccccc3)c(C)oc2=O)cc1` as the compound, how does the Potency read?
**A.** active: 31.6 µM

**Q.** `CC1C(=O)N(S(=O)(=O)c2ccc([N+](=O)[O-])cc2)[C@H]1c1ccc2ccccc2c1` (stereo partly drawn) was tested. Which Potency did it give?
**A.** inconclusive: 2.51 µM [inhibitor, partial curve, poor fit]

**Q.** `Cc1cccc(C(=O)N/N=C/c2ccc[nH]2)c1` was tested. Which Potency did it give?
**A.** inconclusive: 100 µM [inhibitor, single point]

**Q.** `O=C(NC1CCCCC1)C(c1cccs1)N(C(=O)c1ccccn1)c1ccccc1` (stereo not drawn) was tested. Which max response, negative = inhibition did it give?
**A.** inactive: -1.04%

**Q.** For `COc1ccc(NC(=O)c2sc3cc(C(F)(F)F)cnc3c2-c2cccs2)cc1`, which max response, negative = inhibition is on record?
**A.** inactive: -18.1%

**Q.** With `Cc1ccc(C(=O)/C=C/NNC(=O)c2ccccc2O)cc1` as the compound, how does the Potency read?
**A.** inconclusive: 44.7 µM [inhibitor, partial curve]

**Q.** How did the max response, negative = inhibition turn out when `CC(C)CNC(=O)NC1(C(F)(F)F)Oc2ccccc2O1` was run?
**A.** inactive: -13%

**Q.** For `O=[N+]([O-])c1ccc(-c2csc(Nc3ccccc3)[n+]2Cc2ccccc2)cc1`, which max response, negative = inhibition is on record?
**A.** inactive: -1.27%

**Q.** For `CC1CCCCC1NC(=O)CCS(=O)(=O)c1ccc2c(c1)NC(=O)CS2` (stereo not drawn), which Potency is on record?
**A.** inconclusive: 31.6 µM [inhibitor, partial curve, poor fit]

**Q.** For `c1cc(NC2CC2)nc(-c2ccoc2)n1`, which Potency is on record?
**A.** inconclusive: 50.1 µM [inhibitor, partial curve]

**Q.** With `CCC12CN3CCN(CC(C3)/C1=N\NC(=O)c1ccc(F)cc1)C2` as the compound, how does the Potency read?
**A.** inconclusive: 89.1 µM [inhibitor, single point]

**Q.** `O=C(c1ccc2c(c1)OCO2)N1CCN(S(=O)(=O)c2ccc(Cl)cc2)CC1` was tested. Which max response, negative = inhibition did it give?
**A.** inactive: 4.01%

**Q.** How did the max response, negative = inhibition turn out when `Cc1ccc(CCNC(=O)C2CC(c3cc(C(F)(F)F)cc(C(F)(F)F)c3)=NO2)cc1` (stereo not drawn) was run?
**A.** inactive: 6.17%

**Q.** `COCCCn1c(C(=O)Nc2ccc3c(c2)OCO3)cc2c(=O)n3ccccc3nc21` was tested. Which Potency did it give?
**A.** inconclusive: 25.1 µM [inhibitor, single point]

**Q.** Which Potency does the source give for `COc1ccc2cc1Oc1ccc(cc1)CC1c3cc(c(OC)cc3CCN1C)Oc1c(OC)c(OC)c(OC)c3c1C(C2)N(C)CC3` (stereo not drawn) here?
**A.** active: 44.7 µM

**Q.** For `CCCCS(=O)(=O)c1oc(-c2ccc(F)cc2)nc1S(=O)(=O)c1ccc(C)cc1`, which Potency is on record?
**A.** inconclusive: 12.6 µM [inhibitor, partial curve, poor fit]

**Q.** How did the Potency turn out when `Cc1oc(=O)cc(OCc2ccccc2)c1C` was run?
**A.** inconclusive: 100 µM [inhibitor, single point]

**Q.** Which Potency does the source give for `COc1ccc(/C=C/C(=O)c2sc(-c3ccccc3)nc2C)cc1` here?
**A.** inconclusive: 10 µM [inhibitor, partial curve, poor fit]

**Q.** Which max response, negative = inhibition does the source give for `COc1ccc(-c2c(C)c3ccc(O)c(CN4CCN(CCO)CC4)c3oc2=O)cc1OC` here?
**A.** inactive: 6.87%

**Q.** For `CCOc1cc(N2CCOCC2)c(OCC)cc1NC(=O)c1ccc(NC(C)=O)cc1`, which max response, negative = inhibition is on record?
**A.** inactive: -7.07%

**Q.** `COc1ccccc1NC(=O)NCCC1=CCCCC1` was tested. Which Potency did it give?
**A.** inconclusive: 15.8 µM [inhibitor, partial curve, poor fit]
